In the data set the target is T1, CgHIFα bHLH-PAS (Crassostrea gigas) (UniProt B6ZGN4).
T1 sequence (looked up, limits assumed): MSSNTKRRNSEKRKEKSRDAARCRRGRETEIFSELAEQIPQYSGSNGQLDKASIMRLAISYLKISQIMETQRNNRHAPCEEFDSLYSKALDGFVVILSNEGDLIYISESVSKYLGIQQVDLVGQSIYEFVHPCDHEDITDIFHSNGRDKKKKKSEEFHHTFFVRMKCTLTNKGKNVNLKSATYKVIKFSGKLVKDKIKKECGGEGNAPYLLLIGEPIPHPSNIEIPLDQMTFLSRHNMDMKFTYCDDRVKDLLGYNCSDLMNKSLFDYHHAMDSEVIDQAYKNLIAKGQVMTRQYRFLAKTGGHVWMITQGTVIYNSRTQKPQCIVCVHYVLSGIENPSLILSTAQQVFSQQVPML
The data set can be described thus: competition with a labelled probe. Particulars: 200-fold excess Em vs biotin-Ew; 10 mM Tris pH 7.5, 50 mM KCl, 1 mM DTT, 50 ng poly(dI-dC) in 20 uL, 20 min at room temperature; recombinant protein; protein details: His (pET30a); label: none (competitor).

No signal at the amounts used counts as a negative. At least one verdict was read from the data and is not stated in words by the source. Protein sequences can lack the tags named with them.

With “GCCCTAAAAGCTGTCTCA (double strand) [Em (mutant HRE)]”, the binding result is recorded as “no binding”.

The values above are taken from article PMC5096685, “Characterization of CgHIFα-Like, a Novel bHLH-PAS Transcription Factor Family Member, and Its Role under Hypoxia Stress in the Pacific Oyster Crassostrea gigas”.
